Patent US20220053773A1 (priority 2018, published 2022)
Entries after “also recorded” stand apart in the source; their conditions may differ. Part of at least one peptide drawing is inferred or uncertain, most often the ends. Ends that are not written are not given here.

Columns and labels:
[1] = test system: X. fastidiosa in infected grape leaves; settings: in vivo
[2] = test system: Xanthomonas Perforans BAA983
[3] = test system: Pseudomonas Resistant BAA-2114
P. syringae (Pst) = settings: in vivo
[4] = test system: X. fastidiosa (Xf) in infected grapevines; settings: in vivo
[5] = test system: Xanthomonas Euvesicatoria 11633
Pseudomonas WT 27853 = settings: Table 9 lower part, c5
Salmonella = settings: Table 9 lower part, c4
[6] = test system: innate immune genes (PTI, ETI, SA, JA, ET pathways); design: species or system tobacco; settings: in vivo
[7] = test system: X. fastidiosa (PD strain)
[8] = test system: CLas in infected citrus leaves; format: in vivo, Candidatus Liberibacte asiaticus (CLas); settings: FIG. 6B

KRIVQRIKDFLRGPGRKRIVQRIKDFLR [Peptide 28P2]
clearance of X. fastidiosa from infected leaves [1]: completely clears
MIC-plant (μm) Xanthomonas Perforans BAA983 [2]: 2.5 µM
MIC-human (μm) Pseudomonas Resistant BAA-2114 [3]: 5 µM
clearance of Pst (P. syringae (Pst)): almost completely cleared
% Xf clearance from bark by qPCR [4]: completely clear
% Xf clearance from green leaves by qPCR [4]: completely clear
MIC-plant (μm) Xanthomonas Euvesicatoria 11633 [5]: 1.3 µM
MIC-human (μm) Pseudomonas WT 27853 (Pseudomonas WT 27853): 1.3 µM
MIC-human (μm) Salmonella (Salmonella): 1.3 µM
innate immune defense (average fold change per gene) [6]: increases steadily up to 12 hours and gradually falls to the basal level at 24 hours; also recorded: initial spike tappers off subsequently
MIC-plant (μm) Xylela fastidiosa (grape) [7]: 3(2) μM

LIKLIKKILKKGPGRKKLIKKILKIL [Peptide P26]
activity in detached leaf assay compared with streptomycin [8]: more active than streptomycin
